At least one compound was matched to its structure with a doubt left.
Legend:
Type in all cases: in vivo
[1] = test system: SD rats; assay: Anxiety behavior model of repeatedly administrated rat: O-maze test; conditions: summary
Description: (§1) The requirements for test animals, drug formulation and administration were the same as those of the rat chronic mild stress model.
(§2) Instruments: Vogel drinking anxiety device for rat and O-maze device for rat were manufactured by Shanghai XinRuan Company. The rat feeding chamber was a home-made white plastic box (60×45×25 cm).
(§3) The rats were administrated continuously by i.g. once a day. A novelty-suppressed feeding test, a Vogel drinking conflict test, and an O-maze test were performed on a different day, respectively. Each behavior test was performed at 9:00-12:00, and the administration time was 16:00-17:00. The test process was as follows: D12, novelty-suppressed feeding test (animals were fasted for 48 hours before the test); D18, Vogel drinking conflict test (animals were banned from water for 48 hours before the test); D21, O-maze test.
An O-maze device was placed in the center of a dark room and illuminated with an infrared light during the test. The animal was placed in the center of a closed arm of an O-maze track, timed for 5 minutes, and the activity of the rat in the maze was monitored by an infrared camera. Animals in each group were given a single intragastric administration 60 min before the test. Observation indicators were the number of times the rat entered the open arm and the accumulated dwell time in the open arm.

[2] = test system: SD rats; assay: Anxiety behavior model of repeatedly administrated rat: novelty-suppressed feeding test
Description: as §1, §2, §3
Common paddings with a thickness of 1.5 cm were placed at the floor of the rat feeding chamber, and six equal-sized food pellets were placed in the center. During the test, the rats were individually placed in a fixed position of the feeding chamber, and observed for 5 minutes. The time from rat entry to the start of biting or chewing the food was recorded with a stopwatch.

[3] = test system: chronic stress rat; assay: Chronic unpredictable stress model of rat: novelty-suppressed feeding test; conditions: chronic mild stress model, summary
Description: (§4) Animals: SD rats, male, weighing 150-180 g, SPF grade.
(§5) Formulation and administration mode of drugs: All drugs for the test were suspended and dispersed with a 0.5% aqueous solution of CMC-Na, and shaken well before use. The rats were administered by i.g. at a volume of 10 mL/kg.
(§6) Rats were acclimatized for 3 days after purchase. First, 48 h of sucrose training was performed. After the training, a sucrose baseline test was performed. The rats were randomly and evenly grouped according to sucrose preference. Then, (dl) a 4-week chronic unpredictable stress (CUS) procedure was performed with the following stress methods: (1) food deprivation (fasting); (2) water deprivation; (3) stroboflash; (4) overnight illumination; (5) wet feeding (200 ml of water was added to 150 g of sawdust bedding); (6) noise stimulation (110 dB), 1 h; (7) swimming in cold water (the water temperature was 10° C.); (8) cage tilt (45 degrees of inclination); (9) tail pinch (at 1 cm away from the tail root) for 6 min; (10) restraint for 1-2 h. […]
On the 29th day of the stress program, the rats were fasted for 48 hours (not water deprivation) and then subjected to a novelty-suppressed feeding test (d31). […] At the same time as the rats were put in, the latency of the rats to start eating within 5 min was calculated. […] Rats that had not eaten within 5 minutes were recorded to have a feeding latency of 5 minutes. […]

[4] = test system: SD rats; assay: Anxiety behavior model of repeatedly administrated rat: Vogel drinking conflict test; conditions: summary
Description: as §1, §2, §3
The Vogel drinking anxiety device for rat connected a drinking tube of a water bottle, an electric grid and a current loop of a controller through the animal body when rat drank water. The controller can automatically record the number of times the animal drank water and can deliver an electric shock to foot sole. The rat was individually placed in the test chamber after 48 hours of water deprivation. […] The device automatically recorded the number of times the rat drank water with electric shock within 3 minutes.

[5] = test system: chronic stress rat; assay: Chronic unpredictable stress model of rat: sucrose preference test; conditions: chronic mild stress model
Description: as §4, §5
Rats were acclimatized for 3 days after purchase. First, 48 h of sucrose training was performed. After the training, a sucrose baseline test was performed. The rats were randomly and evenly grouped according to sucrose preference. […]
Rats were acclimatized for 3 days after purchase. […] After the end of the training, the rats were fed with normal food and water for 3 days, and then a sucrose preference baseline was determined: after fasting and water deprivation for 14 h, rats were allowed to drink freely two different bottles of water, one of which was 1% aqueous solution of sucrose and the other was tap water. The intakes (g) of rats from these two bottles within 1 hour were measured to calculate the sucrose preference. […]

[6] = test system: chronic stress rat; assay: Chronic unpredictable stress model of rat: open-field activity test; conditions: chronic mild stress model, summary
Description: as §4, §5
as §6, with “h. One of the above stress methods was used randomly every day, but water deprivation and fasting were separated. The corresponding drugs (including the blank control group and the positive drug group) were given 1 h before the stress in the morning every day.” for “h.”

Question: How did the “Effect on O-maze open arm behavior (in words)” value [1] turn out when `[2H]C([2H])([2H])Oc1cc2c(CCNC(C)=O)cccc2cc1Cl` [Example 1, N-(2-(6-chloro-7-deuteromethoxy-naphthalen-1-yl)ethyl)acetamide] was run?
Answer: Its value is “increase the exploration behavior of the O-maze open arm”.

Question: What about the “Anti-anxiety effect compared with Agomelatine” value ([2]; anxiety behavior model, overall over the three tests) of the same molecule?
Answer: The value was “anti-anxiety effect stronger than that of Agomelatine”.

Question: What about the “Effect on feeding latency of rats in the anxiety model (in words)” value ([2]; summary) of the same molecule?
Answer: Its value is “reduce the feeding latency of rats in the anxiety model”.

Question: And the “Effect on feeding latency of the stress rat (in words)” value [3]?
Answer: The value was “shorten the feeding latency”.

Question: And the “Effect on drinking water with electric shock (in words)” value [4]?
Answer: Its value is “increase the frequency of drinking water with electric shock”.

Question: What about the “Anti-depressant effect compared with Agomelatine” value ([5]; overall over the three tests) of the same molecule?
Answer: The value was “its anti-depressant effect is stronger than that of Agomelatine”.

Question: What about the “Effect on sucrose preference of the stress rat (in words)” value ([5]; summary) of the same molecule?
Answer: Its value is “increase the sucrose preference of the stress rat”.

Question: And the “Effect on open-field activity of the stress rat (in words)” value [6]?
Answer: The value was “increase the number of cross-compartment times and rearing times”.

Reference: patent publication US11980598B2, “N-(2-(substituted-naphth-1-yl)ethyl) substituted amide compound, preparation and uses thereof” (BEIJING GREATWAY PHARMACEUTICAL TECHNOLOGY CO., LTD., priority 2017, dated 2024)
